Measured values: PMC3097235
Results are given in words; binding and its absence hold for the method and conditions named. In cells and extracts the contact can be indirect. Some results given as binding are weak or reduced against the parent protein; the word gives no strength.

Experiments:
[1] = target: T1, calnexin (human (endogenous in HEK 293)) (UniProt P27824); test: co-IP; HEK 293 cells transfected with tyrosinase constructs, pulsed 20 min with 35S Met/Cys, chased 0, 0.5, 1, 2 h; 2% CHAPS lysates precipitated with anti-calnexin or anti-calreticulin, eluted with 1% SDS, re-precipitated with T311 anti-tyrosinase; SDS-PAGE, autoradiography
T1 sequence: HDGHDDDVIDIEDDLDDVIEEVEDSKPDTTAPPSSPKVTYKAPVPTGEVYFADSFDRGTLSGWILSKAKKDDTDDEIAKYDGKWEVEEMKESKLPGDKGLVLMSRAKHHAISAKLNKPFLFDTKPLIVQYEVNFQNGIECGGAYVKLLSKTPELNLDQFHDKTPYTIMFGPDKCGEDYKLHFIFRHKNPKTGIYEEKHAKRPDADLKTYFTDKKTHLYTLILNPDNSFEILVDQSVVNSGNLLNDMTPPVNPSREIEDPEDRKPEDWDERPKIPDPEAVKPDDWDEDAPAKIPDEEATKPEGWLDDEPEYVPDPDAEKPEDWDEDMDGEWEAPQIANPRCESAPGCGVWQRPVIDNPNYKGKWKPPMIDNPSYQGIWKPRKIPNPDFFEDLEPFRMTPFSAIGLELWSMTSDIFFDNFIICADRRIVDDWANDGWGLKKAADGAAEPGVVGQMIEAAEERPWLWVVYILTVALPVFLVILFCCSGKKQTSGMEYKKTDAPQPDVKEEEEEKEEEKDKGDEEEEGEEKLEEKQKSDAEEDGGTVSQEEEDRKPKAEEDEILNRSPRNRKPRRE

[2] = target: calreticulin (human (endogenous in HEK 293)) (UniProt P27797); test: as above

binding [1]: binds
binding [2]: binds weakly
B1: human tyrosinase N-glycosylation mutant Δ3 (N161Q) (enzyme, UniProt P14679 19-529)
chain: HFPRACVSSKNLMEKECCPPWSGDRSPCGQLSGRGSCQNILLSNAPLGPQFPFTGVDDRESWPSVFYNRTCQCSGNFMGFNCGNCKFGFWGPNCTERRLLVRRNIFDLSAPEKDKFFAYLTLAKHTISSDYVIPIGTYGQMKQGSTPMFNDINIYDLFVWMHYYVSMDALLGGSEIWRDIDFAHEAPAFLPWHRLFLLRWEQEIQKLTGDENFTIPYWDWRDAEKCDICTDEYMGGQHPTNPNLLSPASFFSSWQIVCSRLEEYNSHQSLCNGTPEGPLRRNPGNHDKSRTPRLPSSADVEFCLSLTQYESGSMDKAANFSFRNTLEGFASPLTGIADASQSSMHNALHIYMNGTMSQVQGSANDPIFLLHHAFVDSIFEQWLRRHRPLQEVYPEANAPIGHNRESYMVPFIPLYRNGDFFISSKDLGYDYSYLQDSDPDSFQDYIKSYLEQASRIWSWLLGAAMVGAVLTALLAGLVSLLCRHKRKQLPEEKQPLLMEKEDYHSLYQSHL
